Data published in the supplement of paper PMC8104966.
Structures can show the parent of a compound that is named as a salt. Some of the results follow. This data set is noisy: repeats of one test often differ as much as different tests do.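 U2OS cells expressing ACE2 were combined with U2OS cells expressing full-length spike, and imaging quantified fusion as the fraction of nuclei displaying both cell types' fluorescent markers. Non-toxic compounds with a fusion z-score under -3, i.e., over three standard deviations below the plate's DMSO wells, are called inhibitory hits.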

These compounds were tested on U2OS ACE2 x SARS-CoV-2 spike co-culture (assay: cell-cell fusion (fraction fused) z-score vs plate DMSO control; higher = more fusion). Details: 30 µM; 5 h; toxicity class: non-toxic, passed QC.

Row | SMILES | cell-cell fusion (z-score)
1 | CN[C@@H]1[C@@H](O)[C@@H](O[C@@H]2[C@@H](O)[C@H](O[C@H]3O[C@H]([C@@H](C)NC)CC[C@H]3N)[C@@H](N)C[C@H]2N)OC[C@]1(C)O.O=S(=O)(O)O [Gentamycin sulfate] | inactive: 2.65
2 | O=S(=O)(c1cccc2cnccc12)N1CCCNCC1 | inactive: 3.69
3 | N[C@@H](Cc1cc(I)c(Oc2cc(I)c(O)c(I)c2)c(I)c1)C(=O)O [L-Thyroxine] | inactive: 3.34
4 | C/C=C(\C)C(=O)O[C@H]1C[C@@H](OC(C)=O)[C@@]2(C(=O)OC)CO[C@@H]3C2[C@]12CO[C@](O)(C(=O)OC)[C@H]2[C@](C)(C12O[C@@]1(C)[C@H]1C[C@@H]2OC2OC=C[C@@]21O)[C@@H]3O (stereo partly specified) | inactive: 1.3
5 | NC(CO)(CO)CO [Trometamol] | inactive: 4.19
6 | NC(CO)(CO)CO | inactive: 2.71
7 | CC(=O)c1c(O)c(C)c(O)c(Cc2c(O)c3c(c(C(=O)/C=C/c4ccccc4)c2O)OC(C)(C)C=C3)c1O [Rottlerin] | inactive: 2.18
8 | CC[C@H](C)[C@H](N)C(=O)O [isoleucine] | inactive: 2.47
9 | O=C1CC(c2ccccc2)Oc2ccccc21 (stereo unspecified) | inactive: 2.08
10 | CCN(CC)CCCC(C)Nc1ccnc2cc(Cl)ccc12.O=P(O)(O)O.O=P(O)(O)O (stereo unspecified) [Chloroquine diphosphate] | inactive: 0.987
11 | CC(=O)O[C@H]1C(=O)[C@@]2(C)C([C@H](OC(=O)c3ccccc3)[C@]3(O)C[C@H](OC(=O)[C@H](O)[C@@H](NC(=O)c4ccccc4)c4ccccc4)C(C)=C1C3(C)C)[C@]1(OC(C)=O)CO[C@@H]1C[C@@H]2O (stereo partly specified) | inactive: 1.61
12 | Cl.NCC(CC(=O)O)c1ccc(Cl)cc1 (racemic) | inactive: 3.71
13 | CN1C(=O)C(O)N=C(c2ccccc2)c2cc(Cl)ccc21 (stereo unspecified) | inactive: 1.14
14 | O[C@H]1[C@H](O)[C@@H](O)C2OC[C@H]1O2 | inactive: 2.55
15 | O=c1cc(-c2ccccc2)oc2c(O)c(O)ccc12 [7,8-Dihydroxyflavone hydrate] | inactive: 1.34
16 | NC[C@@H]1CC[C@@H](N)[C@@H](O[C@H]2[C@H](O)[C@@H](O[C@H]3O[C@H](CO)[C@@H](O)[C@H](N)[C@H]3O)[C@H](N)C[C@@H]2N)O1 | inactive: 1.59
17 | COc1ccccc1OCCNCC(O)COc1cccc2[nH]c3ccccc3c12 (stereo unspecified) | inactive: 2.34
18 | COc1cc(O)cc(O)c1C(=O)c1ccccc1 | inactive: 2.99
19 | O=C(O)C(O)C(O)C(=O)O.O=C(c1ccc(F)cc1)C1CCN(CCn2c(=O)[nH]c3ccccc3c2=O)CC1 [Ketanserin tartrate] | inactive: 0.119
20 | c1ccc(/N=N\c2ccccc2)cc1 | inactive: 2.54
21 | Cc1ncc(CNC(=O)N(CCCl)N=O)c(N)n1 | inactive: 1.41

Row | SMILES | cell-cell fusion (z-score)
22 | Cc1ncc(CNC(=O)N(CCCl)N=O)c(N)n1 [Nimustine hydrochloride] | inactive: 1.66
23 | CC[P](CC)(CC)=[Au][S][C@@H]1O[C@H](COC(C)=O)[C@@H](OC(C)=O)[C@H](OC(C)=O)[C@H]1OC(C)=O [Auranofin] | inactive: 1.03
24 | CC1(C)CC[C@]2(C)CC[C@]3(C)C(=CCC4[C@@]5(C)CC[C@H](O)C(C)(C)C5CC[C@]43C)C2C1 (stereo partly drawn) [beta-AMYRIN] | inactive: 1.35
25 | C#CCCCCCCCCCCCC(O)CC(O)COC(C)=O.C=CCCCCCCCCCCCC(O)CC(O)COC(C)=O (stereo unspecified) | inactive: 0.82
26 | CS(=O)(=O)O.Cn1cc(C(F)(F)F)nc1-c1ccc(OCC(O)CNCCOc2ccc(O)c(C(N)=O)c2)cc1 (stereo unspecified) | inactive: 0.916
27 | Cc1c(OCC(F)(F)F)ccnc1CS(=O)c1nc2ccccc2[nH]1 (stereo unspecified) [Lansoprazole] | inactive: 0.392
28 | Cl.O=C1c2cccc3c2[C@H](CCC3)CN1[C@@H]1CN2CCC1CC2 [Palonosetron hydrochloride] | inactive: 0.761
29 | CN[C@H]1CC[C@@H](c2ccc(Cl)c(Cl)c2)c2ccccc21.Cl [Sertraline hydrochloride] | inactive: -1.3
30 | CCO.C[C@H]1c2cccc(O)c2C(O)=C2C(=O)[C@]3(O)C(O)=C(C(N)=O)C(=O)[C@@H](N(C)C)[C@@H]3[C@@H](O)[C@@H]21.C[C@H]1c2cccc(O)c2C(O)=C2C(=O)[C@]3(O)C(O)=C(C(N)=O)C(=O)[C@@H](N(C)C)[C@@H]3[C@@H](O)[C@@H]21.Cl.Cl.O [Doxycycline hyclate] | inactive: 1.86
31 | CC[C@]12CCCN3CCc4c(n(c5ccccc45)[C@](O)(C(=O)OC)C1)[C@@H]32 | inactive: 0.666
32 | CC(O)(CS(=O)(=O)c1ccc(F)cc1)C(=O)Nc1ccc(C#N)c(C(F)(F)F)c1 (stereo unspecified) [Bicalutamide (CDX)] | inactive: 2.03
33 | CC(O)(CS(=O)(=O)c1ccc(F)cc1)C(=O)Nc1ccc(C#N)c(C(F)(F)F)c1 (stereo unspecified) | inactive: 1.32
34 | C[N+](C)(C)CCCCCCCCCC[N+](C)(C)C.[Br-].[Br-] | inactive: 2.44
35 | C[N+](C)(C)CCCCCCCCCC[N+](C)(C)C.[Br-].[Br-] [Decamethonium dibromide] | inactive: 2.76
36 | Oc1c(Cl)cc(Cl)c(Cl)c1Cc1c(O)c(Cl)cc(Cl)c1Cl | inactive: 1.09
37 | CC1(C)C(=O)C=C[C@@]2(C)C1CC(=O)[C@@]1(C)C3=CC(=O)O[C@@H](c4ccoc4)[C@]3(C)CCC12 (stereo partly specified) | inactive: 3.11
38 | CC(=O)[N-]S(=O)(=O)c1ccc(N)cc1.O.[Na+] [Sulfacetamide sodium salt hydrate] | inactive: 1.69
39 | CN(C)C(=O)Oc1cc(OC(=O)N(C)C)cc(C(O)CNC(C)(C)C)c1.Cl (stereo unspecified) | inactive: 1.41
40 | CC(=O)NCCc1c[nH]c2ccc(O)cc12 [N-Acetyl-5-hydroxytryptamine] | inactive: 1.58
41 | CC(C)(Sc1cc(C(C)(C)C)c(O)c(C(C)(C)C)c1)Sc1cc(C(C)(C)C)c(O)c(C(C)(C)C)c1 | inactive: 0.161

An excerpt taken from the entries so far:
Row | SMILES | cell-cell fusion (z-score)
35 | C[N+](C)(C)CCCCCCCCCC[N+](C)(C)C.[Br-].[Br-] [Decamethonium dibromide] | inactive: 2.76
36 | Oc1c(Cl)cc(Cl)c(Cl)c1Cc1c(O)c(Cl)cc(Cl)c1Cl | inactive: 1.09
37 | CC1(C)C(=O)C=C[C@@]2(C)C1CC(=O)[C@@]1(C)C3=CC(=O)O[C@@H](c4ccoc4)[C@]3(C)CCC12 (stereo partly specified) | inactive: 3.11
